Test results published in article PMC3482226.
For at least one entry, the source does not settle the construct or the ends of the probe. At least one result comes from cells or an extract, where the contact may be indirect. For part of these data: No signal at the amounts used counts as a negative. For part of these data: Where a protein sequence is shown, tags need not be part of it.

Key:
NF-kB p65 + NF-kB p50 [1] = test: competition with a labelled probe; settings: 10 mM Tris pH 7.5, 50 mM NaCl, 10% glycerol, 1% NP-40, 1 mM EDTA, 0.1 ug/ul poly-dI.dC, 0.01 pmol probe, 15 min room temperature, protein in an extract, folded or branched DNA
NF-kB p50/p50 [2] = molecular target: T1, NF-kB p50/p50 (UniProt A0A9J7F5I3); test: competition with a labelled probe; settings: ER-stressed CHO nuclear extract; 10 mM Tris pH 7.5, 50 mM NaCl, 10% glycerol, 1% NP-40, 1 mM EDTA, 0.1 ug/ul poly-dI.dC, 0.01 pmol probe, 15 min room temperature; protein in an extract; folded or branched DNA
T1 sequence (looked up, limits assumed): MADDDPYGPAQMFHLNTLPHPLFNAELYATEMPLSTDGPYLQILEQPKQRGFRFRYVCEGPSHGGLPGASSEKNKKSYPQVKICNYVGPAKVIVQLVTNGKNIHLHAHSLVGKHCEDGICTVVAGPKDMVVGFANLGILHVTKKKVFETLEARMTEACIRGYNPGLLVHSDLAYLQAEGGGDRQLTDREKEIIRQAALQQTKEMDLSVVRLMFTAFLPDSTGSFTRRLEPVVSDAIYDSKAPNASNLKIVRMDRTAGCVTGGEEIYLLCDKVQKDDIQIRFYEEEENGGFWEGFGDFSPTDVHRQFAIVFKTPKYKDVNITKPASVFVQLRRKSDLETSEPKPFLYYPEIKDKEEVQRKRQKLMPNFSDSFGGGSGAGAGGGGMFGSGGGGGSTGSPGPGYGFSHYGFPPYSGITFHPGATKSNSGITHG

NF-kB p65 + NF-kB p50 [3] = test: EMSA supershift; settings: 10 mM Tris pH 7.5, 50 mM NaCl, 10% glycerol, 1% NP-40, 1 mM EDTA, 0.1 ug/ul poly-dI.dC, 0.01 pmol probe, 15 min room temperature, protein in an extract, label: 32P
NF-kB p50/p50 [4] = molecular target: T1, NF-kB p50/p50; test: EMSA supershift; settings: ER-stressed CHO nuclear extract; 10 mM Tris pH 7.5, 50 mM NaCl, 10% glycerol, 1% NP-40, 1 mM EDTA, 0.1 ug/ul poly-dI.dC, 0.01 pmol probe, 15 min room temperature; protein in an extract; label: 32P
[5] = DTT- or Tg-treated MEF nuclear extract
[6] = ER-stressed CHO nuclear extract

| Sequence | binding result (NF-kB p65 + NF-kB p50 [1]; [5]) | binding result (NF-kB p65 + NF-kB p50 [1]; [6]) | binding result (NF-kB p50/p50 [2]) | binding result (NF-kB p65 + NF-kB p50 [3]; [5]) | binding result (NF-kB p65 + NF-kB p50 [3]; [6]) | binding result (NF-kB p50/p50 [4]) |
| --- | --- | --- | --- | --- | --- | --- |
| CTGGGGACTTTCCAGGTTAGCTTCCTGGAAAGTCCCCAG [kB wt competitor hairpin] | binds | binds | binds |  |  |  |
| AGTTGAGGGGACTTTCCCAGGC (double strand) [NF-kB probe] |  |  |  | binds | binds | binds |
| CTGTCTACTTTCCAGGTTAGCTTCCTGGAAAGTAGACAG [kB mt competitor hairpin] | no binding | no binding | no binding |  |  |  |
